According to patent US20230057012A1, “TGFB INHIBITORS AND USE THEREOF” (Scholar Rock, Inc., priority 2020, published 2023):
Results are given in words; binding and its absence hold for the method and conditions named. Some results given as binding are weak or reduced against the parent protein; the word gives no strength.

The chains behind the UniProt entries cited, without tags or fusion partners. Where a name states a change or a piece, a line headed by the entry shows the natural chain unless it says otherwise.
UniProt G3XA59: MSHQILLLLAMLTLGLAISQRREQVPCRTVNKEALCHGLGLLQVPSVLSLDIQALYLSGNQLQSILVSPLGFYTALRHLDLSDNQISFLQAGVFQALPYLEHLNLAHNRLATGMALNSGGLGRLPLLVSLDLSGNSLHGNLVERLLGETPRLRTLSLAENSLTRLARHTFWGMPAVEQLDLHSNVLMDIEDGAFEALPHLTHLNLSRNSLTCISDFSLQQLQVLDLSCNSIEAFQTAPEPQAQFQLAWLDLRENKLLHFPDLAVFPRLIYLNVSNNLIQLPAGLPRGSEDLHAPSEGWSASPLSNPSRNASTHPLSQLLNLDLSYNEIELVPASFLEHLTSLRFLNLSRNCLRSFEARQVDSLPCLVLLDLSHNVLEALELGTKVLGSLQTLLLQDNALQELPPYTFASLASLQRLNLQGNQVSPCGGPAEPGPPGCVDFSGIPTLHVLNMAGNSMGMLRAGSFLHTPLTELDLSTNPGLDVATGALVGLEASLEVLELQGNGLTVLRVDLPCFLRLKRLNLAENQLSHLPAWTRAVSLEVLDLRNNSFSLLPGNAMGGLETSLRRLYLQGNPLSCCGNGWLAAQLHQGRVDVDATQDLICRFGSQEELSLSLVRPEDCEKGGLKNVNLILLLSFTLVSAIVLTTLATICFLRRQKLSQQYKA
UniProt Q9NS15: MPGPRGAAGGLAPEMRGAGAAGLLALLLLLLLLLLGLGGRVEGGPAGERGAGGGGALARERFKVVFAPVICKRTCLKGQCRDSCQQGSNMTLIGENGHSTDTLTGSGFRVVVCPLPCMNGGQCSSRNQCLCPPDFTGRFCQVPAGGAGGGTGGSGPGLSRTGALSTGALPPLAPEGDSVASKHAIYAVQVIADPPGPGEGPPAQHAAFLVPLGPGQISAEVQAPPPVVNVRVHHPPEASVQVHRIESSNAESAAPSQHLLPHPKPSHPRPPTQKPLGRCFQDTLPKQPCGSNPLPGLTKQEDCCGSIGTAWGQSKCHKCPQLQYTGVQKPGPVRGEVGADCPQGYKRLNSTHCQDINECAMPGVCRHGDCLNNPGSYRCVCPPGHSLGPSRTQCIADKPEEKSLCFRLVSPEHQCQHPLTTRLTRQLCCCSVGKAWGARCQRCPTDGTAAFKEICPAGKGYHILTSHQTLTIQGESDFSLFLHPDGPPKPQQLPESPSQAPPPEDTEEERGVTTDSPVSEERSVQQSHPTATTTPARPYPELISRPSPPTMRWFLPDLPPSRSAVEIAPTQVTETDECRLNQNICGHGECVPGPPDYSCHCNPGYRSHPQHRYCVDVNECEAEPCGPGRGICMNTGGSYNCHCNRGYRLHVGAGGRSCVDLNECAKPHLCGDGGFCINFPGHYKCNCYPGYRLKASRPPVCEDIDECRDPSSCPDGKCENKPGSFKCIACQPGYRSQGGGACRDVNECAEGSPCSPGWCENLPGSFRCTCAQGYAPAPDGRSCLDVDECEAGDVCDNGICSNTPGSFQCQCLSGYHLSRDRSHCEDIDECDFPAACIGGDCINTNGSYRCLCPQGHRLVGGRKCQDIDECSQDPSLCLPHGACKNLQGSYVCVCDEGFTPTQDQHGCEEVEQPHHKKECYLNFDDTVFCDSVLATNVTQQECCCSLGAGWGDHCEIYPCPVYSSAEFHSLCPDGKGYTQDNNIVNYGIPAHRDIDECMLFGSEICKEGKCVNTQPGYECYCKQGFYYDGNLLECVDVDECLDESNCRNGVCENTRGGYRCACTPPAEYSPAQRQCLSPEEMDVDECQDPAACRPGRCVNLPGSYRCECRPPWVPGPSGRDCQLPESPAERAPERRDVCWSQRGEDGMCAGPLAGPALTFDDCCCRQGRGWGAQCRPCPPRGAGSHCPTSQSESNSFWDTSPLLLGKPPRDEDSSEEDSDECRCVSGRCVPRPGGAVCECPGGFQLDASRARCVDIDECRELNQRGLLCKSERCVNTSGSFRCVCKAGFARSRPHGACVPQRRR
UniProt Q8CG19: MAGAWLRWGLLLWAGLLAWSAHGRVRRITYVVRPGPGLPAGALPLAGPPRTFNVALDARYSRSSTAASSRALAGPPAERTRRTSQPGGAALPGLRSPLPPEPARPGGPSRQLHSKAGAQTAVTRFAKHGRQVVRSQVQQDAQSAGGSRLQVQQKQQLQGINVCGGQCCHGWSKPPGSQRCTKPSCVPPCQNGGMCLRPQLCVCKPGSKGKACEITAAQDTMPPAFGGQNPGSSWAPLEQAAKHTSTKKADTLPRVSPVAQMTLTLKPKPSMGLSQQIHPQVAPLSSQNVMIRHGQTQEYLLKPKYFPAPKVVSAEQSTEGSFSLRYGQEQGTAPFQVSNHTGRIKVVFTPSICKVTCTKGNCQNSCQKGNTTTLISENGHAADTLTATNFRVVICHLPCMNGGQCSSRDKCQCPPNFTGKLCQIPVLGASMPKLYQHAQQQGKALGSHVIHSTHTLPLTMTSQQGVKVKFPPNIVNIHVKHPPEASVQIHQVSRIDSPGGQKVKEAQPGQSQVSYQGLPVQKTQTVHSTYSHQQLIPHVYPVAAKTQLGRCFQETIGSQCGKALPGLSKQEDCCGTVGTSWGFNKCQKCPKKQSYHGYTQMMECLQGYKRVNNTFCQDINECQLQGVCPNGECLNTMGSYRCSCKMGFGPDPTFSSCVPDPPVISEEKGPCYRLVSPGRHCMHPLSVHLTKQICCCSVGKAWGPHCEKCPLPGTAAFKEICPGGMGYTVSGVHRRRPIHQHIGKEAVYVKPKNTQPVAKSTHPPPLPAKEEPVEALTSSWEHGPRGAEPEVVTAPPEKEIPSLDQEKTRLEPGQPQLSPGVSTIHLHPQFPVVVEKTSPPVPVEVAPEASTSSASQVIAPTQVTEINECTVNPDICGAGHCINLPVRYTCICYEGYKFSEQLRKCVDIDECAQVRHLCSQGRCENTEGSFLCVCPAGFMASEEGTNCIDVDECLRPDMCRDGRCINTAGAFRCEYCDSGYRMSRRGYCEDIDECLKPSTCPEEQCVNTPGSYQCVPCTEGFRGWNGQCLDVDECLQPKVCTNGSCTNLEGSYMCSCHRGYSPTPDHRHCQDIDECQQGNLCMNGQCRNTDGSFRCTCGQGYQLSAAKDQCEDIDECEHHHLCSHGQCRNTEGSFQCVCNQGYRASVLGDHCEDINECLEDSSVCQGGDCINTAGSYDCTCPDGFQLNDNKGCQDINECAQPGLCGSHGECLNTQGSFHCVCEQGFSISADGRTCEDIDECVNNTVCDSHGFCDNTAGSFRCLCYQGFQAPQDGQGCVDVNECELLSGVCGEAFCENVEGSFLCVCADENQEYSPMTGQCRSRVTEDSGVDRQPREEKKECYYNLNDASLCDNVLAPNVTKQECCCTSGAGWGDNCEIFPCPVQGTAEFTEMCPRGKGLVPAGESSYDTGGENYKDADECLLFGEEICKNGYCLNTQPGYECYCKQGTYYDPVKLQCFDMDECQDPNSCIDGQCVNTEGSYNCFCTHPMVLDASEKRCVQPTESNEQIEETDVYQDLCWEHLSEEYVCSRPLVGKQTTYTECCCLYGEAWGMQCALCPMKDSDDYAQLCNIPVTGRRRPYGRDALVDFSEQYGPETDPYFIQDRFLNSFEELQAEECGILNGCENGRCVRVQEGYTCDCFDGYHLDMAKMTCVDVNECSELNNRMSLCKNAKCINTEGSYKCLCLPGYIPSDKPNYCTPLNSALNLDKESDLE
UniProt Q61810: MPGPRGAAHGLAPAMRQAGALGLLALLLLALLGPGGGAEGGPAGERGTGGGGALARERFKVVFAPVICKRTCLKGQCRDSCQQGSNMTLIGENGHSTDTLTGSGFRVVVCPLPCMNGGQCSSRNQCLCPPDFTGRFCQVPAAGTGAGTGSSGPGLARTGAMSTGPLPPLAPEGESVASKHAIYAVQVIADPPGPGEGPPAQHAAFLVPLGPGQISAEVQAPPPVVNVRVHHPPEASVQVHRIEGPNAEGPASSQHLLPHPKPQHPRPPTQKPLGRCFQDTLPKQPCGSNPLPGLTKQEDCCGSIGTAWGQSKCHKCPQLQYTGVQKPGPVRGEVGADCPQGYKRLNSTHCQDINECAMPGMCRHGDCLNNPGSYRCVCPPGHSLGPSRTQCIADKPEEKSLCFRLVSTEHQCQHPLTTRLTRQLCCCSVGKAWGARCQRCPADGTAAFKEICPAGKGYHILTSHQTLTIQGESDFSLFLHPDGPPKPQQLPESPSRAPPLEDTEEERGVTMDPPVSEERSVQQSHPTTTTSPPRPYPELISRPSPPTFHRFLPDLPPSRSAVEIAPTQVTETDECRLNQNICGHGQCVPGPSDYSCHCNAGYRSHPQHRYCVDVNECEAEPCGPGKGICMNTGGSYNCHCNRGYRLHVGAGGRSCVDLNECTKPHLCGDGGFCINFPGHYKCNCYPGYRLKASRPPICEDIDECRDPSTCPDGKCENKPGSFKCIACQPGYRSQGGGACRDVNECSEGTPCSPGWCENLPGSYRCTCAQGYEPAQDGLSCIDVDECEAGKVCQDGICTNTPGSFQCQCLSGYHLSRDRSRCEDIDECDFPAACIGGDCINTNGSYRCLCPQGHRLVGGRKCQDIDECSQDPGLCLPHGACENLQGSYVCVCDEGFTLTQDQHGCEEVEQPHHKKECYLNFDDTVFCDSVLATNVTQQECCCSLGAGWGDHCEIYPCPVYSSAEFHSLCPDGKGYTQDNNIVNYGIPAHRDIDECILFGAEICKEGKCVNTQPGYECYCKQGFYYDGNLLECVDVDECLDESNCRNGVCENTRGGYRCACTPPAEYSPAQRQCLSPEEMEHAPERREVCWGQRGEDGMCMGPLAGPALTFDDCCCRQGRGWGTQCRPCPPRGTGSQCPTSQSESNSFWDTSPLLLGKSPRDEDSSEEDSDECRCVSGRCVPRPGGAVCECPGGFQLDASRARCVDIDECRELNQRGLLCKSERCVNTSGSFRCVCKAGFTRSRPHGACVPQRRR

Experiments:
[1] = target: murine GARP-proTGFβ1 complex (mouse; human) (UniProt G3XA59); test: ELISA, purified hIgG4 titrated from about 0.002 to 100 nM, readout RLU, panel mGARP-TGFb1
[2] = target: human LTBP1-proTGFβ1 complex (human) (UniProt Q14766); test: ELISA, purified hIgG4 titrated from about 0.002 to 100 nM, readout RLU, panel hLTBP1-TGFb1
[3] = target: human LTBP3-proTGFβ1 complex (human) (UniProt Q9NS15); test: ELISA, purified hIgG4 titrated from about 0.002 to 100 nM, readout RLU, panel hLTBP3-TGFb1
[4] = target: murine LTBP1-proTGFβ1 complex (mouse; human) (UniProt Q8CG19); test: ELISA, purified hIgG4 titrated from about 0.002 to 100 nM, readout RLU, panel mLTBP1-TGFb1
[5] = target: murine LTBP3-proTGFβ1 complex (mouse; human) (UniProt Q61810); test: ELISA, purified hIgG4 titrated from about 0.002 to 100 nM, readout RLU, panel mLTBP3-TGFb1

Measured: binding

B1: Ab46 hIgG4 (antibody, V domains shown)
VH: EVQLLESGGGLVQPGGSLRLSCAASGFTFADYAMTWVRQAPGKGLEWVSAISGSGAATYFADSVKGRFTISRDNSKNTLYLQMNSLRAEDTAVYYCARVSSGHWDYDYWGQGTLVTVSS
VL: DIQLTQSPSSLSASVGDRVTITCRASQSISSYLNWYQQKPGKAPKLLIYAASGLESGVPSRFSGSGSGTDFTLTISSLQPEDFATYYCQQTYGVPLTFGGGTKVEIK
binds: [1] | [2] | [3] | [4] | [5]
